{"source": "paper PMC4254946", "biological_target": "HHV-6B (strain Z29) glycoprotein gB (HHV-6B strain Z29)", "assay": "affinity purification with mass spectrometry; semi-purified HHV-6 viral particles (10^6 TCID50/ml) incubated with 1 mg HeLa protein lysate (PBS, no detergent) for 12 h at 4°C; IP with anti-HHV-6 gB antibody and agarose beads; washes with 20 mM Hepes, 200 mM NaCl, 1 mM EDTA, 10 mg/ml BSA; SDS-PAGE, silver staining, enriched bands identified by mass spectrometry", "note": "No constants are given. Whether binding was seen depends on the method and setting. Binding seen in cells or lysates may run through a third protein. Here binding means that the protein was enriched with, or labelled near, the bait; the list need not be complete."}
{"binder": "Transketolase (protein, UniProt P29401 1-623) MESYHKPDQQKLQALKDTANRLRISSIQATTAAGSGHPTSCCSAAEIMAVLFFHTMRYKSQDPRNPHNDRFVLSKGHAAPILYAVWAEAGFLAEAELLNLRKISSDLDGHPVPKQAFTDVATGSLGQGLGAACGMAYTGKYFDKASYRVYCLLGDGELSEGSVWEAMAFASIYKLDNLVAILDINRLGQSDPAPLQHQMDIYQKRCEAFGWHAIIVDGHSVEELCKAFGQAKHQPTAIIAKTFKGRGITGVEDKESWHGKPLPKNMAEQIIQEIYSQIQSKKKILATPPQEDAPSVDIANIRMPSLPSYKVGDKIATRKAYGQALAKLGHASDRIIALDGDTKNSTFSEIFKKEHPDRFIECYIAEQNMVSIAVGCATRNRTVPFCSTFAAFFTRAFDQIRMAAISESNINLCGSHCGVSIGEDGPSQMALEDLAMFRSVPTSTVFYPSDGVATEKAVELAANTKGICFIRTSRPENAIIYNNNEDFQVGQAKVVLKSKDDQVTVIGAGVTLHEALAAAELLKKEKINIRVLDPFTIKPLDRKLILDSARATKGRILTVEDHYYEGGIGEAVSSAVVGEPGITVTHLAVNRVPRSGKPAELLKMFGIDRDAIAQAVRGLITKA", "values": [{"measurement": "binding", "result": "binds"}]}
